# The list shows a part of the results. Shown are side measurements of this screen, not its main read-out; they come without a call. Compounds called inactive in the main read-out are mostly missing here. Words in brackets tell the shape of the fitted curve; partial curves, single points and poor fits give uncertain potencies.
# Experiment: qHTS Assay to Find Inhibitors of Chronic Active B-Cell Receptor Signaling
# Conditions: ABC-DLBCL IkBa-CBG/CBR reporter, luminescence ratio (green luciferase fused to IkBa over red control in TMD8 lymphoma cells), 4 h; measured here: CBR red luminescence, cell number
# Procedure, shortened: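 Doxycycline induced both beetle luciferases in TMD8 lymphoma cells; IKK-driven degradation limits the IkappaBalpha-fused green signal, while red luminescence normalises for cell number and nonspecific effects. Compounds tested up to 46 uM, 4 hrs.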
row,SMILES,AC50
1,CCc1cc2c(=O)[nH]c(CC(N)=O)nc2s1,"15.8 µM [rising, partial curve, poor fit]"
2,CCOC(=O)N1CCN(C(=O)C2CCN(c3ncnc4c3sc3cccc(F)c34)CC2)CC1,"11.2 µM [falling, partial curve]"
3,COc1ccc(-c2nnc(SCC(=O)Oc3ccc(C)cc3)o2)cc1,"20.6 µM [falling, partial curve, poor fit]"
4,COc1ccc(-c2ccc(Nc3ccc(C(=O)N4CCOCC4)cc3)nn2)cc1OC,"18.4 µM [falling, single point]"
5,O=C(Nc1cccc(S(=O)(=O)N2CCCCC2)c1)c1ccc2c(c1)OCO2,"23.1 µM [falling, single point]"
6,C/C(=N\NC(=O)c1nn(C)c(C)c1Br)c1ccc(NC(=O)c2ccoc2C)cc1,"16.4 µM [falling, single point]"
7,COc1ccc(OC)c(S(=O)(=O)Nc2cccnc2)c1,"20.6 µM [falling, single point]"
8,O=C(Nc1ccc(N2CCCCC2)cc1)C(Cl)c1ccccc1 (stereo not drawn),"1.78 µM [rising, partial curve]"
9,Cc1ccccc1CN(C)C(=O)COC(=O)c1ccc2[nH]c(C)c(C)c2c1,"29.1 µM [falling, single point]"
10,CCOC(=O)c1c(/N=C/C2=C(O)CC(C)(C)CC2=O)sc(C)c1C,"9.2 µM [rising, partial curve, poor fit]"
11,CC1CCN(C(=O)CSc2nc3ccccc3[nH]2)CC1,"1.64 µM [rising, full curve, poor fit]"
12,O=C(/C=C/Nc1ccccc1)c1ccc(Cl)cc1Cl,"31.6 µM [falling, single point]"
13,COc1cc(C(=O)NC(C)CCc2ccccc2)cc(OC)c1OC (stereo not drawn),"11.2 µM [rising, partial curve]"
14,CCOC(=O)C(=O)Nc1nnc(C2CCCCC2)s1,"0.13 µM [rising, full curve]"
15,O=C(COC(=O)c1ncc(Cl)c(Cl)c1Cl)NCCc1ccccc1,"2.31 µM [falling, partial curve, poor fit]"
16,COc1ccc(/C=C/C(=O)NC(C)CCc2ccccc2)cc1OC (stereo not drawn),"35.5 µM [falling, single point]"
17,COc1cc(/C=N/NC(=O)c2ccc(O)cc2)ccc1OCC(=O)N1CC(C)OC(C)C1 (stereo not drawn),"0.794 µM [falling, full curve]"

# Laid out differently: results already given
row	SMILES	AC50
1	CCc1cc2c(=O)[nH]c(CC(N)=O)nc2s1	15.8 µM [rising, partial curve, poor fit]
2	CCOC(=O)N1CCN(C(=O)C2CCN(c3ncnc4c3sc3cccc(F)c34)CC2)CC1	11.2 µM [falling, partial curve]

# Additional entries:

row,SMILES,AC50
1,CC(=O)c1sc(NC(=O)C2CCN(C(=O)c3ccccc3C)CC2)nc1-c1ccccc1,"11.6 µM [falling, partial curve, poor fit]"
2,CCC(=O)Nc1ccc(-n2nnnc2SCC(=O)NNC(=O)c2ccco2)cc1,"6.31 µM [rising, partial curve, poor fit]"
3,CCCCn1c(CCCNC(=O)CC)nc2ccccc21,"25.9 µM [falling, single point]"
4,C=CCN(C1CCCCC1)S(=O)(=O)c1ccc2c(c1)oc(=O)n2C,"20 µM [falling, partial curve, poor fit]"
5,O=C(O)c1cccc(Cn2c(Cl)c(/C=N/NC(=O)c3ccccc3O)sc2=O)c1,"11.2 µM [falling, partial curve]"
6,Oc1ccc(Cl)cc1CNCc1ccc(Cl)cc1,"6.51 µM [rising, single point]"
7,CCC(CO)NC(=O)c1cc2c(s1)CCC2 (stereo not drawn),"7.31 µM [falling, single point]"
8,O=S(=O)(c1ccc(F)cc1)N(CCO)CC(O)Cn1c2ccccc2c2ccccc21 (stereo not drawn),"6.51 µM [falling, single point]"
9,O=c1[nH]n2c(-c3ccccc3)nc(O)c2c2ccccc12,"2.24 µM [falling, full curve, poor fit]"
10,O=C(Cc1ccccn1)c1ccc(O)cc1O,"5.01 µM [rising, partial curve]"
11,Cc1ccc(CNC(=O)c2ccc(C#CC(C)(C)O)s2)cc1,"23.1 µM [rising, partial curve, poor fit]"
12,CCc1nnc(NC(=O)CSc2ccc(-c3nc4ccccc4[nH]3)cn2)s1,"7.08 µM [falling, partial curve]"
13,CN1C(=O)C(/C(N)=N/NC(=O)c2ccccc2)C2CC1(C)Oc1ccccc12 (stereo not drawn),"2.06 µM [falling, partial curve, poor fit]"
14,COc1ccccc1N1CCN(C(=O)c2sc3nc(-c4ccc(F)cc4)cn3c2C)CC1,"29.1 µM [falling, single point]"
15,C(#Cc1ccccc1)Cn1nnc2ccccc21,"25.9 µM [rising, partial curve, poor fit]"
16,CCOc1ccccc1OCC(=O)Nc1cc2c(cc1C(=O)O)OCCCO2,"35.5 µM [falling, single point]"

# — PubChem BioAssay AID493014 (National Center for Advancing Translational Sciences (NCATS), 2011)
